Experimental data from the supplement of paper PMC7877785.
± gives the uncertainty stated by the source. Many of these values have a large error.

Test: self-splicing fitness, log relative to wild type (ln ratio); higher = more splicing; Tetrahymena group I intron in knt gene, E. coli kanamycin selection, DiMSum; sequences stand for … in CUCUCU…GGAGGGAAAAGUUAUCAGGCAUGCACCUGGUAGCUAGUCUUUAAACCAAUAGAUUGCAUCGGUUUAAAAGGCAAGACCGUCAAAUUGCGGGAAAGGGGUCAACAGCCGUUCAGUACCAAGUCUCAGGGGAAACUUUGAGAUGGCCUUGCAAAGGGUAUGGUAAUAAGCUGACGGACAUGGUCCUAACCACGCAGCCAAGUCCUAAGUCAACAGAUCUUCUGUUGAUAUGGAUGCAGUUCACAGACUAAAUGUCGGUCGGGGAAGAUGUAUUCUUCUCAUAAGAUAUAGUCGGACCUCUCCUUAAUGGGAGCUAGCGGAUGAAGUGAUGCAACACUGGAGCCGCUGGGAACUAAUUUGUAUGCGAAAGUAUAUUGAUUAGUUUUGGAGUACUCGUGGUCG
How it was run: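 Library with all eight P1ex-region intron nucleotides randomised, intron inside the knt kanamycin-resistance gene on pET-22b(+), in E. coli BL21(DE3). Cells grew overnight at 37°C or 30°C on LB agar with or without 25 μg/mL kanamycin (plus 100 μg/mL carbenicillin, 50 μM IPTG, 0.2% rhamnose), in six replicate transformations. Pooled colonies were amplicon-sequenced on Illumina HiSeq 2500. DiMSum fitness is the error-weighted combination of wild-type-normalised replicate fold changes, kanamycin versus none.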

Row | Sequence | self-splicing fitness (ln) (30 °C) | self-splicing fitness (ln) (37 °C)
1 | CUACAGCAAUAUUACGUUGC | -3.67 ± 0.23 | -2.82 ± 0.21
2 | UGCGAGCAAUAUUACGCGAU |  | -2.22 ± 0.67
3 | GCGUAGCAAUAUUACGAAAG |  | -2.3 ± 1.1
4 | GCUGAGCAAUAUUACGGCAG | -3.48 ± 1.1 | 
5 | UCGGAGCAAUAUUACGUUGU | -3.7 ± 0.22 | -1.93 ± 0.21
6 | ACAGAGCAAUAUUACGGGAC |  | -2.06 ± 0.6
7 | CGGGAGCAAUAUUACGGACA | -2.24 ± 0.69 | -2.61 ± 0.63
8 | CGCGAGCAAUAUUACGCGCU | -3.63 ± 1 | 
9 | AGUUAGCAAUAUUACGGGGC | -2.94 ± 0.75 | -1.99 ± 0.66
10 | UUUGAGCAAUAUUACGGGGC | -2.5 ± 0.65 | 
11 | GAUCAGCAAUAUUACGUUCC | -4.36 ± 0.59 | 
12 | GUUGAGCAAUAUUACGAUAG | -4.39 ± 1 | 
13 | CUAGAGCAAUAUUACGUCCU | -3.61 ± 0.63 | -1.43 ± 0.61
14 | UUGUAGCAAUAUUACGUUCC |  | -0.681 ± 1
15 | ACUAAGCAAUAUUACGAAUA | -2.99 ± 0.23 | -2.55 ± 0.25
16 | GGAGAGCAAUAUUACGCGAG |  | -2.18 ± 0.76
17 | GUGGAGCAAUAUUACGAAAC | -4.39 ± 0.59 | 
18 | AAAGAGCAAUAUUACGGACC | -4.02 ± 0.52 | 
19 | CUUAAGCAAUAUUACGAUCC |  | -2.7 ± 0.76
20 | UUACAGCAAUAUUACGCCAU | -2.91 ± 0.25 | -2.48 ± 0.27

Single entries from the list.
self-splicing fitness (ln) (37 °C), UUGUAGCAAUAUUACGUUCC reads -0.681 ± 1
self-splicing fitness (ln) (37 °C), AGUUAGCAAUAUUACGGGGC reads -1.99 ± 0.66

The list continues.

Row | Sequence | self-splicing fitness (ln) (30 °C) | self-splicing fitness (ln) (37 °C)
21 | GGCCAGCAAUAUUACGCGAC | 0.468 ± 1.1 | -1.47 ± 1.2
22 | CAUUAGCAAUAUUACGACUC | -3.48 ± 1.1 | -1.74 ± 0.59
23 | CCGCAGCAAUAUUACGAACU |  | -2.74 ± 0.61
24 | GGGGAGCAAUAUUACGACCG |  | -0.046 ± 0.9
25 | CGGUAGCAAUAUUACGAGUA | -2.5 ± 0.56 | -1.32 ± 0.4
26 | ACCAAGCAAUAUUACGCGCC | -1.35 ± 0.11 | 0.198 ± 0.14
27 | UCUCAGCAAUAUUACGGCCC | -2.82 ± 0.76 | -2.47 ± 1.1
28 | UUUCAGCAAUAUUACGAGCU | -2.31 ± 0.68 | 
29 | CUAGAGCAAUAUUACGGUUC | -3.81 ± 0.6 | -3.7 ± 0.59
30 | UGAGAGCAAUAUUACGGUCA | -0.647 ± 0.1 | -0.589 ± 0.13
31 | ACGAAGCAAUAUUACGAGAA |  | -2.15 ± 0.5
32 | AUUGAGCAAUAUUACGAAUA | -3.63 ± 1 | -1.98 ± 0.81
33 | CCAGAGCAAUAUUACGUGUG | -1.69 ± 0.091 | -1.54 ± 0.097
34 | CGCUAGCAAUAUUACGCGAC | -3.92 ± 0.52 | -2.13 ± 0.65
35 | CGGGAGCAAUAUUACGGCGA |  | -2.46 ± 0.78
36 | AAUGAGCAAUAUUACGGCCA | -2.42 ± 0.53 | 
37 | UAUCAGCAAUAUUACGCUGA | -3.63 ± 1 | 
38 | UUCUAGCAAUAUUACGAUCG | -3.71 ± 0.73 | 
39 | AAGGAGCAAUAUUACGUGCU | -3.7 ± 0.53 | 
40 | ACGGAGCAAUAUUACGGCCC | -2.03 ± 0.59 | 2.3 ± 0.73

Row | Sequence | self-splicing fitness (ln) (30 °C) | self-splicing fitness (ln) (37 °C)
41 | GGGGAGCAAUAUUACGCAAA | -2.84 ± 0.54 | -2.39 ± 0.55
42 | GGCCAGCAAUAUUACGACGG | -3.72 ± 0.61 | -2.8 ± 0.53
43 | CCGAAGCAAUAUUACGUAGC |  | -2.92 ± 0.53
44 | UGAUAGCAAUAUUACGGUGC |  | -2.2 ± 1.1
45 | UAGUAGCAAUAUUACGAACA | 0.239 ± 0.78 | -0.405 ± 0.42
46 | GCAUAGCAAUAUUACGGGCC | -3.7 ± 0.52 | 
47 | UUUCAGCAAUAUUACGAAGC |  | -1.71 ± 0.65
48 | GGUAAGCAAUAUUACGUACU |  | -1.79 ± 1.2
49 | UGGAAGCAAUAUUACGCCUU |  | -1.76 ± 0.53
50 | CAGGAGCAAUAUUACGCUUC | -2.76 ± 0.77 | -2.45 ± 0.76
51 | GUUGAGCAAUAUUACGCAUC |  | -2.35 ± 0.55
52 | GGGGAGCAAUAUUACGACCU | -2.44 ± 1.1 | -0.503 ± 0.56
53 | AGCAAGCAAUAUUACGUAUU | -3.02 ± 0.14 | -1.24 ± 0.11
54 | CUGGAGCAAUAUUACGCUAC | -3.77 ± 1 | -3.21 ± 0.6
55 | CCGAAGCAAUAUUACGAAGC | -4.31 ± 1 | 
56 | GGGUAGCAAUAUUACGACCU |  | -2.59 ± 0.55
57 | CAGGAGCAAUAUUACGCUCA | -4.11 ± 0.73 | -2.05 ± 0.51
58 | CGGUAGCAAUAUUACGGGCC |  | -3.02 ± 0.53
